These results are taken from paper PMC5927464 (2018).

Substitutions are numbered along the chain they refer to. These are yes or no findings as the source states them, for the method shown. For some of these results: In cells and extracts the contact can be indirect. For some of these results: Binding can be weak; no strength is given. For some of these results: Sequences can lack the tags named with a protein.

For assay [1], the target named is T1, C-terminally Flag-tagged mouse RNase L, wild type (RNase L-Flag) (mouse) (UniProt Q05921).
T1 sequence: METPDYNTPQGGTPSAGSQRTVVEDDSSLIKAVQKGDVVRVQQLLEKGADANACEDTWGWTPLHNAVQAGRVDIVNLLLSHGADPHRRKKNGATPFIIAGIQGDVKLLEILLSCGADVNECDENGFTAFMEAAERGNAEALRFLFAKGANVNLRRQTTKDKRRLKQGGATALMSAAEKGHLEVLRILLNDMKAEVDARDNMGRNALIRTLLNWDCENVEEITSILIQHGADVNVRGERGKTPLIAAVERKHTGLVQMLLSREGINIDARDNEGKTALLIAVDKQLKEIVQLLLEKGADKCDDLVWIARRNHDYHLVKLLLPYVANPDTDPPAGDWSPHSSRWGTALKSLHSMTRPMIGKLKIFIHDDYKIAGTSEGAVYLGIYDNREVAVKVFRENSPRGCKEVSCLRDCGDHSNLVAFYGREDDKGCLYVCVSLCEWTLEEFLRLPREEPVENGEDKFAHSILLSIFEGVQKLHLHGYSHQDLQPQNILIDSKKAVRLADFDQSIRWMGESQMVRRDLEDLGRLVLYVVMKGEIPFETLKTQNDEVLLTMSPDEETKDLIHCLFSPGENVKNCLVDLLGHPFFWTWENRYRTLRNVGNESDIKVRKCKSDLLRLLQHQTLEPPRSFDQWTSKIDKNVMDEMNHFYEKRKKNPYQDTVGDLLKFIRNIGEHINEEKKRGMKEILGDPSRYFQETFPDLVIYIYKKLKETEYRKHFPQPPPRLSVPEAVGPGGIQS
The assay is described as follows: cross-linking; lysates of 293T cells overexpressing RNase L-Flag with or without L* (HEPES 20 mM pH 7.5, NaCl 100 mM, NP40 0.5%, EDTA 2 mM); 2-5A added (0.25 to 8 μM ATP equivalent), 10 min at 37°C; 5 mM DSS for 30 min; anti-Flag immunoblot of monomers, dimers and oligomers.

Assay [2] concerns the target HA-tagged L* protein of TMEV strain DA (HA-L*DA) (Theiler's murine encephalomyelitis virus, strain DA). The assay is described as follows: co-IP; Flag-tagged RNase L constructs and N-terminally HA-tagged L* co-expressed in 293T cells; HA-L* immunoprecipitated from lysates with anti-HA antibody and protein A/G magnetic beads; immunoblot with anti-Flag and anti-HA.
Assay [3] has as its target HA-tagged L* protein of the rat TMEV strain RTV-1 (HA-L*_(RTV-1)) (rat TMEV strain RTV-1). The description is as above.
Assay [4] addresses (His)6-L* (purified recombinant L*DA) (Theiler's murine encephalomyelitis virus, strain DA). The assay is described as follows: SPR; Biacore 3000; (His)6-L* immobilized on Ni-NTA chips, mouse or human RNase L injected; 10 μl/min, 3 min association, 5 min dissociation; 1:1 Langmuir model, global fitting; both purified.

For “L* as overexpressed with RNase L-Flag in the dimerization assay (Theiler's murine encephalomyelitis virus)”, the binding entry in assay [1] is given as “binds”.

B1: Flag-HuRNase L—mouse 1–58 (enzyme, UniProt Q05921 1-58; Q05823 59-741)
chain: METPDYNTPQGGTPSAGSQRTVVEDDSSLIKAVQKGDVVRVQQLLEKGADANACEDTWGWTPLHNAVQMSREDIVELLLRHGADPVLRKKNGATPFILAAIAGSVKLLKLFLSKGADVNECDFYGFTAFMEAAVYGKVKALKFLYKRGANVNLRRKTKEDQERLRKGGATALMDAAEKGHVEVLKILLDEMGADVNACDNMGRNALIHALLSSDDSDVEAITHLLLDHGADVNVRGERGKTPLILAVEKKHLGLVQRLLEQEHIEINDTDSDGKTALLLAVELKLKKIAELLCKRGASTDCGDLVMTARRNYDHSLVKVLLSHGAKEDFHPPAEDWKPQSSHWGAALKDLHRIYRPMIGKLKFFIDEKYKIADTSEGGIYLGFYEKQEVAVKTFCEGSPRAQREVSCLQSSRENSHLVTFYGSESHRGHLFVCVTLCEQTLEACLDVHRGEDVENEEDEFARNVLSSIFKAVQELHLSCGYTHQDLQPQNILIDSKKAAHLADFDKSIKWAGDPQEVKRDLEDLGRLVLYVVKKGSISFEDLKAQSNEEVVQLSPDEETKDLIHRLFHPGEHVRDCLSDLLGHPFFWTWESRYRTLRNVGNESDIKTRKSESEILRLLQPGPSEHSKSFDKWTTKINECVMKKMNKFYEKRGNFYQNTVGDLLKFIRNLGEHIDEEKHKKMKLKIGDPSLYFQKTFPDLVIYVYTKLQNTEYRKHFPQTHSPNKPQCDGAGGASGLASPGC
For B1, the binding entry in assay [2] is “binds”.

B2: Flag-MuRNase L—R80, Y81 (enzyme, UniProt Q05921 1-735)
chain: T1 sequence with S80R, H81Y
Consider B2, for which, in assay [3], the binding entry is “binds”.

B3: Flag-tagged mouse RNase L, wild type (Flag-MuRNase L WT) (enzyme, UniProt Q05921 1-735)
chain: T1 sequence
Regarding B3, the binding result in assay [2] is listed as “binds”.

B4: Flag-MuRNase L—human 1–58 (enzyme, UniProt Q05823 1-58; Q05921 59-735)
chain: MESRDHNNPQEGPTSSSGRRAAVEDNHLLIKAVQNEDVDLVQQLLEGGANVNFQEEEGGWTPLHNAVQAGRVDIVNLLLSHGADPHRRKKNGATPFIIAGIQGDVKLLEILLSCGADVNECDENGFTAFMEAAERGNAEALRFLFAKGANVNLRRQTTKDKRRLKQGGATALMSAAEKGHLEVLRILLNDMKAEVDARDNMGRNALIRTLLNWDCENVEEITSILIQHGADVNVRGERGKTPLIAAVERKHTGLVQMLLSREGINIDARDNEGKTALLIAVDKQLKEIVQLLLEKGADKCDDLVWIARRNHDYHLVKLLLPYVANPDTDPPAGDWSPHSSRWGTALKSLHSMTRPMIGKLKIFIHDDYKIAGTSEGAVYLGIYDNREVAVKVFRENSPRGCKEVSCLRDCGDHSNLVAFYGREDDKGCLYVCVSLCEWTLEEFLRLPREEPVENGEDKFAHSILLSIFEGVQKLHLHGYSHQDLQPQNILIDSKKAVRLADFDQSIRWMGESQMVRRDLEDLGRLVLYVVMKGEIPFETLKTQNDEVLLTMSPDEETKDLIHCLFSPGENVKNCLVDLLGHPFFWTWENRYRTLRNVGNESDIKVRKCKSDLLRLLQHQTLEPPRSFDQWTSKIDKNVMDEMNHFYEKRKKNPYQDTVGDLLKFIRNIGEHINEEKKRGMKEILGDPSRYFQETFPDLVIYIYKKLKETEYRKHFPQPPPRLSVPEAVGPGGIQS
Regarding B4, the binding entry in assay [2] was “no binding”.

B5: purified recombinant human RNase L (enzyme, UniProt Q05823 21-719)
chain: AAVEDNHLLIKAVQNEDVDLVQQLLEGGANVNFQEEEGGWTPLHNAVQMSREDIVELLLRHGADPVLRKKNGATPFILAAIAGSVKLLKLFLSKGADVNECDFYGFTAFMEAAVYGKVKALKFLYKRGANVNLRRKTKEDQERLRKGGATALMDAAEKGHVEVLKILLDEMGADVNACDNMGRNALIHALLSSDDSDVEAITHLLLDHGADVNVRGERGKTPLILAVEKKHLGLVQRLLEQEHIEINDTDSDGKTALLLAVELKLKKIAELLCKRGASTDCGDLVMTARRNYDHSLVKVLLSHGAKEDFHPPAEDWKPQSSHWGAALKDLHRIYRPMIGKLKFFIDEKYKIADTSEGGIYLGFYEKQEVAVKTFCEGSPRAQREVSCLQSSRENSHLVTFYGSESHRGHLFVCVTLCEQTLEACLDVHRGEDVENEEDEFARNVLSSIFKAVQELHLSCGYTHQDLQPQNILIDSKKAAHLADFDKSIKWAGDPQEVKRDLEDLGRLVLYVVKKGSISFEDLKAQSNEEVVQLSPDEETKDLIHRLFHPGEHVRDCLSDLLGHPFFWTWESRYRTLRNVGNESDIKTRKSESEILRLLQPGPSEHSKSFDKWTTKINECVMKKMNKFYEKRGNFYQNTVGDLLKFIRNLGEHIDEEKHKKMKLKIGDPSLYFQKTFPDLVIYVYTKLQNTEYRKHFPQT
Turning to B5, the binding entry in assay [4] is listed as “no binding”.

B6: Flag-HuRNase L—mouse 26–51 (enzyme, UniProt Q05823 1-25; Q05921 26-51; Q05823 52-741)
chain: MESRDHNNPQEGPTSSSGRRAAVEDDSSLIKAVQKGDVVRVQQLLEKGADANFQEEEGGWTPLHNAVQMSREDIVELLLRHGADPVLRKKNGATPFILAAIAGSVKLLKLFLSKGADVNECDFYGFTAFMEAAVYGKVKALKFLYKRGANVNLRRKTKEDQERLRKGGATALMDAAEKGHVEVLKILLDEMGADVNACDNMGRNALIHALLSSDDSDVEAITHLLLDHGADVNVRGERGKTPLILAVEKKHLGLVQRLLEQEHIEINDTDSDGKTALLLAVELKLKKIAELLCKRGASTDCGDLVMTARRNYDHSLVKVLLSHGAKEDFHPPAEDWKPQSSHWGAALKDLHRIYRPMIGKLKFFIDEKYKIADTSEGGIYLGFYEKQEVAVKTFCEGSPRAQREVSCLQSSRENSHLVTFYGSESHRGHLFVCVTLCEQTLEACLDVHRGEDVENEEDEFARNVLSSIFKAVQELHLSCGYTHQDLQPQNILIDSKKAAHLADFDKSIKWAGDPQEVKRDLEDLGRLVLYVVKKGSISFEDLKAQSNEEVVQLSPDEETKDLIHRLFHPGEHVRDCLSDLLGHPFFWTWESRYRTLRNVGNESDIKTRKSESEILRLLQPGPSEHSKSFDKWTTKINECVMKKMNKFYEKRGNFYQNTVGDLLKFIRNLGEHIDEEKHKKMKLKIGDPSLYFQKTFPDLVIYVYTKLQNTEYRKHFPQTHSPNKPQCDGAGGASGLASPGC
With B6, the binding result in assay [2] is “binds”.
